About 5,400 (1.8%) of roughly 300,000 compounds were called active. The inconclusive results got no clear call from the source; some entries with a clear call stand among them for comparison. Calls follow the shape of the full dose curve; tested in HEK293 cells. Potencies of inconclusive entries are doubtful fits and often do not repeat.
Assay: qHTS for inhibitors of binding or entry into cells for Marburg Virus
Settings: Marburg virus pseudotyped entry inhibition, cell reporter; series mostly up to 37.8 µM
Potency is read from the fitted curve at half-maximal effect.

Compound | Potency
COc1cccc(C(=O)COC(=O)c2cc(-c3cccs3)nc3ccccc23)c1 | inactive
O=C(NCC1CCCN(C(=O)c2cscn2)C1)c1ccc(-c2ccccc2)cc1 (stereo not drawn) | inconclusive: 25.1 µM [inhibitor, single point]
CC(=O)Nc1cc2c(cc1Cl)-c1ccccc1C2O (stereo not drawn) | inconclusive: 2.82 µM [activator, full curve]
CCCCCc1ccc(-c2ccc(/C=C/C(=O)O)cc2)nc1 | inconclusive: 10 µM [inhibitor, partial curve, poor fit]
COc1ccc(C(=O)NCc2nc(-c3cccc(C)c3)no2)cc1OC | inconclusive: 17.8 µM [inhibitor, single point]
O=S(=O)(Nc1ccc(Nc2ccccc2)cc1)c1ccc(F)cc1 | inconclusive: 17.8 µM [inhibitor, single point]
Cc1ccccc1NCc1ccc(O)c2ncccc12 | inconclusive: 7.3 µM [inhibitor, partial curve, poor fit]
Clc1ccc(Sc2cc(N3CCOCC3)nc(-c3ccccc3)n2)cc1 | inactive
O=S(=O)(c1ccc2c(c1)OCCO2)N1CCC(c2nc3ccccc3[nH]2)CC1 | inconclusive: 6.51 µM [inhibitor, full curve, poor fit]
CC(NC(=O)c1noc2c1CCCCC2)c1ccccc1 (stereo not drawn) | inactive
CCOc1ccccc1OCC(=O)Nc1nnc(COC)s1 | inactive
CCNc1nc(SCC(N)=O)nc2sc3c(c12)CCN(C)C3 | inconclusive: 0.316 µM [inhibitor, full curve, poor fit]
CC(=O)c1cccc(NC(=O)c2cc(-c3cccs3)on2)c1 | inconclusive: 15.8 µM [activator, partial curve, poor fit]
C=C(Cl)COc1ccc2c(CCC)cc(=O)oc2c1 | inactive
CCN(CC)c1nc(NN)nc(Nc2ccc(C)c(Cl)c2)n1 | inconclusive: 5.62 µM [inhibitor, single point]
CC(C)[C@H]1COCCS(=O)(=O)N1Cc1ccccc1-c1cccc2c1oc1ccccc12 | inconclusive: 7.05 µM [inhibitor, partial curve, poor fit]
COc1ccc(CCN2C(=O)N(c3ccc(OC)cc3)C(=O)C2CC(=O)Nc2ccccc2)cc1 (stereo not drawn) | inconclusive: 1 µM [inhibitor, full curve, poor fit]
COCC=CC1=CC2=CC(=O)C(C)(OC(=O)c3cnc4ccccc4n3)C(=O)C2=CN1CC(C)C (stereo not drawn) | inconclusive: 1.33 µM [activator, single point]
COc1ccc(-c2nc3cc(NC(=O)COc4ccc(C)c(C)c4)ccc3o2)cc1 | inconclusive: 2.82 µM [activator, partial curve, poor fit]
Cc1ccc(C)c(Nc2nc3ccccc3[nH]2)c1 | inconclusive: 10 µM [inhibitor, partial curve, poor fit]
O=C(c1cc2ccccc2oc1=O)N(Cc1ccccc1)CC1CCCO1 (stereo not drawn) | inactive
Cc1ccc(S(=O)(=O)c2c(COC(=O)c3ccccc3Cl)c(-c3ccccc3)nn2C)cc1 | inconclusive: 22.4 µM [inhibitor, single point]

Laid out differently: results already given.
COCC=CC1=CC2=CC(=O)C(C)(OC(=O)c3cnc4ccccc4n3)C(=O)C2=CN1CC(C)C (stereo not drawn)
  Potency: inconclusive: 1.33 µM [activator, single point]
COc1ccc(-c2nc3cc(NC(=O)COc4ccc(C)c(C)c4)ccc3o2)cc1
  Potency: inconclusive: 2.82 µM [activator, partial curve, poor fit]

Additional records.

Compound | Potency
NC(=O)C1(N2CCCCC2)CCN(CC(=O)Nc2ccccc2Sc2ccccc2)CC1 | inconclusive: 18.3 µM [inhibitor, partial curve]
O=C(CNS(=O)(=O)c1ccc(F)cc1)Nc1ccc(C(F)(F)F)cc1 | inactive
COc1ccc(-c2cc(C(F)(F)F)nc(SCC(=O)Nc3ccc(O)cc3)n2)cc1OC | inconclusive: 5.62 µM [activator, single point]
CCCCCN(C(=O)CCC(=O)OCC(=O)c1c(C)cc(C)cc1C)c1c(N)n(CCCC)c(=O)[nH]c1=O | inconclusive: 1.41 µM [inhibitor, full curve]
CCN(CC)CCCNC(=O)CCc1c(C)nc2c(c1C)c(=O)n(C)c(=O)n2C | inactive
COC(=O)C1=C(C)NC2=C(C(=O)CC(C)(C)C2)C1c1cnn(C)c1C (stereo not drawn) | inactive
Cc1cc(C)n(-c2ccccc2C#N)n1 | inactive
Cc1ccc(S(=O)(=O)N(C(=O)c2ccncc2)c2ccc(OC(=O)c3ccncc3)c3ccccc23)cc1 | inconclusive: 23.1 µM [inhibitor, partial curve, poor fit]
CCCN1C(=O)c2oc3cc(C)cc(C)c3c(=O)c2C1c1ccc(F)cc1 (stereo not drawn) | inactive
O=C(Nc1cccc(-c2cn3cccnc3n2)c1)c1ccco1 | inactive
CCCc1ccc(-c2cc(N)n[nH]2)cc1 | inactive
O=c1cc(-c2ccc(O)c(O)c2)oc2ccc3ccccc3c12 | inconclusive: 10 µM [inhibitor, partial curve, poor fit]
O=C(c1cc(Cl)nc2ccccc12)N(Cc1nnc(-c2ccc(Cl)cc2)o1)C1CC1 | inconclusive: 12.6 µM [inhibitor, single point]
CC/C(=N\NC(=O)c1ccc(Br)cc1)c1ccccc1 | inactive
COc1ccc(C2=C(C=C(C#N)C#N)C(c3ccccc3C)c3ccccc3O2)cc1OC (stereo not drawn) | inconclusive: 0.251 µM [inhibitor, partial curve, poor fit]
C=CCNc1sc(C(=O)c2ccccc2)c(N)c1-c1nc2ccccc2s1 | inconclusive: 12.6 µM [activator, single point]
COc1cc(NC(=S)NCCN2CCOCC2)cc(OC)c1 | inconclusive: 1 µM [activator, partial curve, poor fit]
Cc1cccc(C)c1NC(=O)C1CCCN1S(=O)(=O)c1cccc2nsnc12 (stereo not drawn) | inconclusive: 2.82 µM [inhibitor, single point]
COc1cccc(NC(=S)N2CCN(S(C)(=O)=O)CC2)c1 | inconclusive: 6.31 µM [inhibitor, single point]
COc1ccc(N2CCN(C(=O)Cc3ccc(S(=O)(=O)N4CCOCC4)s3)CC2)cc1 | inconclusive: 2.82 µM [activator, full curve, poor fit]
CCOC(=O)c1c(C)n(C)c2ccc(OCC(O)Cn3nc(C)c(Br)c3C)cc12 (stereo not drawn) | inconclusive: 29.1 µM [inhibitor, single point]

— PubChem BioAssay AID540276 (National Center for Advancing Translational Sciences (NCATS), 2011)
